B1: Ndnf (protein, UniProt Q8C119 20-568, looked up)
Protein NDNF: QKLPTRDEELFQMQIRDKEFFHDSSVIPDGAEVSSYLFRDTPRRYFFMVEEDNTPLSVTVTPCDAPLEWKLSLQELHEGSSADGSGDPELLDQQKQQMTDVEGTELFSYKGNDVEYFLSSSSPSGLYQLELLSTEKDTHFKVYATTTPESDQPYPELPYDPRVDVTSFGRTTVTLAWKPSPTASILKQPIEYCVVINKEHNFKSLCAAETKMNADDAFMVAPKPGLDFNPFDFAHFGFPTDNLGKDRSLLAKPSPKVGRHVYWRPKVDIQKICIGNKNIFTVSDLKPDTQYYFDVFMVNTNTNMSTAYVGAFVRTKEEAKQKTVELKDGRVTDVFVKRKGKKFLRFAPVSSHQKVTFFIHSCMDAVQVQVRRDGRLLLSQNVEGIRQFQLRGKPKGKYLIRLKGNRKGASKLKILATTRPSKHAFPSLPEDTRIKAFDKLRTCSSVTVAWLGTQERRKFCIYRKEVDGNYSEDQKRREQNQCLGPDTRKKSEKVLCKYFHSQNLQKAVTTETIRDLQPGKSYLLDVYVVGHGGHSVKYQSKIVKTRKVC
B2: Acaa1a (protein, UniProt Q921H8 27-424, looked up)
3-ketoacyl-CoA thiolase A, …: SARFPQASASDVVVVHGRRTPIGRASRGGFKNTTPDELLSAVLTAVLQDVRLKPEQLGDISVGNVLEPGAGAVMARIAQFLSGIPETVPLSTVNRQCSSGLQAVANIAGGIRNGSYDIGMACGVESMSLSGMGNPGNISSRLLESEKARDCLTPMGMTSENVAERFGISRQKQDDFALASQQKAASAQSRGCFRAEIVPVTTTVLDDKGDKKTITVSQDEGVRPSTTMQGLAKLKPAFKDGGSTTAGNSSQVSDGAAAVLLARRSKAEELGLPILGVLRSYAVVGVPPDVMGIGPAYAIPAALQKAGLTVNDIDIFEINEAFASQAVYCVEKLGIPAEKVNPLGGAIALGHPLGCTGARQVVTLLNELKRRGRRAYGVVSMCIGTGMGAAAVFEYPGN
B3: Rap2b (protein, UniProt P61226 1-180, looked up)
Ras-related protein Rap-2b: MREYKVVVLGSGGVGKSALTVQFVTGSFIEKYDPTIEDFYRKEIEVDSSPSVLEILDTAGTEQFASMRDLYIKNGQGFILVYSLVNQQSFQDIKPMRDQIIRVKRYERVPMILVGNKVDLEGEREVSYGEGKALAEEWSCPFMETSAKNKASVDELFAEIVRQMNYAAQPNGDEGCCSAC
B4: Wdr26 (protein, UniProt Q8C6G8 1-641, looked up)
WD repeat-containing protein …: MQANGAGGGGGGGGGGQGQTPELACLSAQNGESSPSATSAGDLAHANGLLPAAPSAAGNNSNSLSVNNGVPGGAAAASATAAAAQATPELGSSLKKKKRLSQSDEDVIRLIGQHLNGLGLNQTVDLLMQESGCRLEHPSATKFRNHVMEGDWDKAENDLNELKPLVHSPHAIVVRGALEISQTLLGIIVRMKFLLLQQKYLEYLEDGKVLEALQVLRCELTPLKYNTERIHVLSGYLMCSHAEDLRAKAEWEGKGTASRSKLLDKLQTYLPPSVMLPPRRLQTLLRQAVELQRDRCLYHNTKLDNNLDSVSLLIDHVCSRRQFPCYTQQILTEHCNEVWFCKFSNDGTKLATGSKDTTVIIWQVDPDTHLLKLLKTLEGHAYGVSYIAWSPDDSYLVACGPDDCSELWLWNVQTGELRTKMSQSHEDSLTSVAWNPDGKRFVTGGQRGQFYQCDLDGNLLDSWEGVRVQCLWCLSDGKTVLASDTHQRVRGYNFEDLTDRNIVQEDHPIMSFTISKNGRLALLNVATQGVHLWDLQDRVLVRKYQGVTQGFYTIHSCFGGHNEDFIASGSEDHKVYIWHKRSELPIAELTGHTRTVNCVSWNPQIPSMMASASDDGTVRIWGPAPFIDHQNIEEECSSMDS
B5: Ipo9 (protein, UniProt Q91YE6 2-1041, looked up)
Importin-9: AAAAAAGAASGLPGPVAQGLKEALVDTLTGILSPVQEVRAAAEEQIKVLEVTEEFGVHLAELTVDPQGALAIRQLASVILKQYVETHWCAQSEKFRPPETTERAKIVIRELLPNGLRESISKVRSSVAYAVSAIAHWDWPEAWPQLFNLLMEMLVSGDLNAVHGAMRVLTEFTREVTDTQMPLVAPVILPEMYKIFTMAEVYGIRTRSRAVEIFTTCAHMICNMEELEKGAAKVLIFPVVQQFTEAFVQALQMPDGPTSDSGFKMEVLKAVTALVKNFPKHMVSSMQQILPIVWNTLTESAAFYVRTEVNYTEEVEDPVDSDGEVLGFENLVFSIFEFVHALLENSKFKSTVKKALPELIYYIILYMQITEEQIKVWTANPQQFVEDEDDDTFSYTVRIAAQDLLLAVATDFQNESAVALATAATRHLQEAEQTKASGTEHWWKIHEACMLALGSVKSIITDSVKNGRIHFDMHGFLTNVILADLNLSASPFLLGRALWAASRFTVAMSPELIQQFLQATVSGLHETQPPSVRISAVRAIWGYCDQLKVSESTHVLQPFLPSILDGLIHLAAQFSSEVLNLVMETLCIVCTVDPEFTASVENKICPFTIAIFLKYSNDPVVASLAQDIFKELSQIEACQGPMQMRLIPTLVSIMQAPADKIPAGLCATAIDILTTVVRNTKPPLSQLLICQAFPAVAQCTLHTDDNATMQNGGECLRAYVSVTLEQVAQWHDEQGHNGLWYVMQVVSQLLDPRTSEFTAAFVGRLVSTLISKAGRELGENLDQILRAILSKMQQAETLSVMQSLIMVFAHLVHTQLEPLLEFLCSLPGPTGKPALEFVMAEWTSRQHLFYGQYEGKVSSVALCKLLQHGINADDKRLQDIRVKGEEIYSMDEGIRTRSKSAKNPERWTNIPLLVKILKLIINELSNVMEANAARQATPAEWNQDDSNDMWEDQEEEEEEEEDGLAGQLLSDILATSKYEEDYYEDDEEDDPDALKDPLYQIDLQAYLTDFLCQFAQQPCYIMFSCHLNDNERRVLQTIGI

Experiments:
Type in all cases: cell-based, mouse
DYT-TOR1A MEF EVs [1] = assay: Quantitative LC-MS/MS proteomics of EVs from drug-treated DYT-TOR1A MEF cultures (ritonavir, salubrinal); conditions: for DYT1/DYT1 + RTV: Directionality of protein change in MEFs EV dataset in DYT1 derived MEFs treated with Ritonavir; for RTV Corrective Direction: Ritonavir; for RTV Corrective Direction / Sal Corrective Direction: was treatment in MEF's in the direction of WT-like?; for Sal Corrective Direction: Salubrinal
WT MEF EVs = assay: Quantitative LC-MS/MS proteomics of EVs from ISRIB-treated WT MEF cultures; conditions: Directionality of protein change in MEFs EV dataset in WT derived MEFs treated with ISRIB
DYT-TOR1A MEF EVs [2] = assay: Quantitative LC-MS/MS proteomics of MEF EVs, DYT-TOR1A genotype vs WT; conditions: Directionality of protein change in MEFs EV dataset between WT and DYT1 derived MEFs

Molecule | DYT1/DYT1 + RTV (DYT-TOR1A MEF EVs [1]) | RTV Corrective Direction (DYT-TOR1A MEF EVs [1]) | Sal Corrective Direction (DYT-TOR1A MEF EVs [1]) | WT + ISRIB/WT (WT MEF EVs) | DYT1/WT (DYT-TOR1A MEF EVs [2]) | DYT1/DYT1 + Sal (DYT-TOR1A MEF EVs [1]; Directionality of protein change in MEFs EV dataset in DYT1 derived MEFs treated with salubrinal)
B1 | DOWN | Yes | No | DOWN | DOWN | 
B2 | DOWN | Yes | No | DOWN | DOWN | 
B3 | DOWN | Yes | No | DOWN | DOWN | 
B4 | DOWN | Yes | No | DOWN | DOWN | 
B5 | DOWN | Yes | Yes | DOWN | DOWN | DOWN
